Where two headings read alike, the source gives them in different places. Construct, isoform or probe ends are uncertain for at least one entry. A weaker result is weaker than the reference pair of the same experiment. At least one verdict rests on a figure or table, not on a statement of the authors.
Tested on: Fy-1 (TBCK) + Fy-2 (PPP1R21) + Fy-3 (C12orf4) + Fy-4 (CRYZL1) + Fy-5 (GATD1)
Test: EMSA

Row | Sequence | binding result | binding result (FERRY/RNA ratio 5)
1 | GGGUGCUCUGUGGGAGGGACUUUGCUGAUUUCCCCUCUUCCCUUCAACAUGAAAAUAUAUACCCCCCCAUGCAGUCUAAAAUGCUUCAGUACUUGUGAAACACAGCUGUUCUUCUGUUCUGCAGACACGCCUUCCCCUCAGCCACACCCAGGCACUUAAGCACAAGCAGAGUGCACAGCUGUCCACUGGGCCAUUGUGGUGUGAGCUUCAGAUGGUGAAGCAUUCUCCCCAGUGUAUGUCUUGUAUCCGAUAUCUAACGCUUUAAAUGGCUACUUUGGUUUCUGUCUGUAAGUUAAGACCUUGGAUGUGGUUUAAUUGUUUGUCCUCAAAAGGAAUAAAACUUUUCUGCUGAUAAGAUAGCCACAGCUGAUUCUCAUUUUCUUUUAAAAAAAAAAAAAAAAAAAAAAAAAAAAAAAAAAAAAAAAAAAAAAAAAAGCGGCCGC [uchl1 3'UTR-50A] | binds more weakly | 
2 | GGGAUGGGCGUCCUGGCCGCAGCGGCGCGCUGCCUGGUCCGGGGUGCGGACCGAAUGAGCAAGUGGACGAGCAAGCGGGGCCCGCGCAGCUUCAGGGGCCGCAAGGGCCGGGGCGCCAAGGGCAUCGGCUUCCUCACCUCGGGCUGGAGGUUCGUGCAGAUCAAGGAGAUGGUCCCGGAGUUCGUCGUCCCGGAUCUGACCGGCUUCAAGCUCAAGCCCUACGUGAGCUACCUCGCCCCUGAGAGCGAGGAGACGCCCCUGACGGCCGCGCAGCUCUUCAGCGAAGCCGUGGCGCCUGCCAUCGAAAAGGACUUCAAGGACGGUACCUUCGACCCUGACAACCUGGAAAAGUACGGCUUCGAGCCCACACAGGAGGGAAAGCUCUUCCAGCUCUACCCCAGGAACUUCCUGCGCUAGGCGGCCGC [mrpl41 orf] | binds more weakly | 
3 | GGGAGUAGUUCCGCUUCCUGUCCGACUGUGGUGUCUUUGCUGAGGGUCACAUUGAGCUGCAGGUUGAAUCCGGGGUGCCUUUAGGAUUCAGCACCAUGGCGGAAGACAUGGAGACCAAAAUCAAGAACUACAAGACCGCCCCUUUUGACAGCCGCUUCCCCAACCAGAACCAGACUAGAAACUGCUGGCAGAACUACCUGGACUUCCACCGCUGUCAGAAGGCAAUGACCGCUAAAGGAGGCGAUAUCUCUGUGUGCGAAUGGUACCAGCGUGUGUACCAGUCCCUCUGCCCCACAUCCUGGGUCACAGACUGGGAUGAGCAACGGGCUGAAGGCACGUUUCCCGGGAAGAUCUGAACUGGCUGCAUCUCCCUUUCCUCUGUCCUCCAUCCUUCUCCCAGGAUGGUGAAGGGGGACCUGGUACCCAGUGAUCCCCACCCCAGGAUCCUAAAUCAUGACUUACCUGCUAAUAAAAACUCAUUGGAAAAGUGAAAAAAAAAAAAAAAAAAAAAAAAAAAAAAAAAAAAAAAAAAAAAAAAAAAGCGGCCGC [cox6b mRNA (full+50A)] |  | binds more weakly
4 | GGGAUUUUGGCUUCCUGACCUUGGGCUACGGCUGACCGUUUUUUGUGGUGUACUCCGUGCCAUCAUGUCCGUCCUGACGCCGCUGCUGCUGCGGGGCUUGACAGGCUCGGCCCGGCGGCUCCCAGUGCCGCGCGCCAAGAUCCAUUCGUUGCCGCCGGAGGGGAAGCUUGGGAUCAUGGAAUUGGCCGUUGGGCUUACCUCCUGCUUCGUGACCUUCCUCCUGCCAGCGGGCUGGAUCCUGUCACACCUGGAGACCUACAGGAGGCCAGAGUGAAGGGGUCCGUUCUGUCCCUCACACUGUGACCUGACCAGCCCCACCGGCCCAUCCUGGUCAUGUUACUGCAUUUGUGGCCGGCCUCCCCUGGAUCAUGUCAUUCAAUUCCAGUCACCUCUUCUGCAAUCAUGACCUCUUGAUGUCUCCAUGGUGACCUCCUUGGGGGUCACUGACCCUGCUUGGUGGGGUCCCCCUUGUAACAAUAAAAUCUAUUUAAACUUUAAAAAAAAAAAAAAAAAAAAAAAAAAAAAAAAAAAAAAAAAAAAAAAAAAAGCGGCCGC [cox8a mRNA (full+50A)] |  | binds more weakly

Reference: doi:10.1101/2021.06.20.449167 (bioRxiv, 2021)
